Reference: patent US6262021A, “Use of substances having oxytocin activity for preparation of medicaments for wound healing” (EntreTech Medical AB, priority 1997, dated 2001)
Part of at least one peptide drawing is inferred or uncertain, most often the ends. Bridge positions count the residues as written; N and C are the ends. Square brackets hold non-standard residues; d marks the D form. Peptide text beside a SMILES is read from it. Orn = NCCC[C@H](N)C(=O)O; Mpa = O=C(O)CCS

System: musculocutaneous flaps
Experiment: Survival of musculocutaneous flaps in rats after administration of oxytocin (Test 1)
Assay type: in vivo, rats (Sprague-Dawley)
Excerpt: An established model of wound healing is to investigate the survival of musculocutaneous flaps in rats. In plastic surgery, reconstructive problems are often solved by surgical flaps. The main disadvantage of surgical flaps has been their tendency to develop ischemia and eventually necrosis of the distal part. This complication can in the end ruin what postoperatively seemed to be an excellent result. Much research has been devoted to explain the mechanisms of surgical skin flap survival and how to prevent and reverse established ischemia.
The aim of this study was to investigate the effects of oxytocin on the survival of musculocutaneous flaps in rats.
71 female albino rats (Sprague-Dawley, weight 180-220 g) were anaesthetized with chloralhydrate (0.4 g/kg), shaved on the back and a dorsal cranially based standard flap (2×7 cm) was elevated and then sutured back in position. The flap was raised from the deep fascia of muscle and included the superficial fascia, panniculus carnosus, subcutaneous tissue and skin. 24 h and 1 h before operation, respectively, as well as 24 h after operation the rats were treated with 1 mg/kg oxytocin s.c. (n=20), an oxytocin antagonist, that is 1-deamino-2-D-Tyr-(OEt)-4-Thr-8-Orn-oxytocin in an amount of 1 mg/kg (n=15), with 1 mg/kg of said oxytocin antagonist and then after 30 minutes with 1 mg/kg oxytocin (n=16), or with saline (n=20).
Six days after the operation the survival of the flaps were estimated. […] When the oxytocin antagonist was administrated before the oxytocin injection this effect was abolished. The oxytocin antagonist alone decreased the flap survival compared to the saline-treated rats (no significance, p=0.13) and the oxytocin-treated rats (p<0.05).
The results are shown as means±SD. Statistical evaluation was performed with a one-way ANOVA followed by Student's t-test.

With CCOc1ccc(C[C@H]2NC(=O)CCSSC[C@@H](C(=O)N3CCC[C@H]3C(=O)N[C@@H](CCCN)C(=O)NCC(N)=O)NC(=O)[C@H](CC(N)=O)NC(=O)[C@H]([C@@H](C)O)NC(=O)[C@H]([C@@H](C)CC)NC2=O)cc1 [oxytocin antagonist, 1-deamino-2-D-Tyr-(OEt)-4-Thr-8-Orn-oxytocin] ([Mpa][dY](Et)ITNCP[Orn]G-NH2; disulfide 1-6) the “effect of oxytocin on flap survival when the antagonist is given before the oxytocin injection” value (1 mg/kg antagonist, after 30 minutes 1 mg/kg oxytocin, six days after operation) was “abolished”, the “survival of the flaps compared to the saline-treated controls” value (1 mg/kg s.c. 24 h and 1 h before and 24 h after operation, estimated six days after operation, oxytocin p<0.05, antagonist no significance p=0.13) was “decreased” and the “flap survival compared to the oxytocin-treated rats” value (1 mg/kg, six days after operation, p<0.05) was “decreased”.
